From patent publication US5916872A, “Cyclic peptides having broad spectrum antimicrobial activity” (IntraBiotics Pharmaceuticals, Inc., priority 1996, dated 1999)
≈ marks a conversion by molar mass, not a printed value. Part of at least one peptide drawing is inferred or uncertain, most often the ends. Positions of bridges follow the written chain, without caps; N, C: chain ends. Residues, ends and D or L forms follow the SMILES beside them.

Columns and labels:
Format in all cases: cell-based
[1] = system: MRSA (methicillin resistant Staphylococcus aureus); assay: Kinetic bactericidal assay; conditions: 2 μg/mL peptide, from an initial value of 3.3 × 10^5 CFUs
Text: (§1) Microorganisms: Escherichia coli ML-35p and vancomycin-resistant Enterococcus faecium (VRE) were obtained from Dr. Robert Lehrer (UCLA, see also, Lehrer et al., 1988, J. Immunol. Methods 108:153) and Dr. Gary Schoolnik (Stanford), respectively. Pseudomonas aeruginosa (ATCC 9027), Candida albicans (ATCC 1023), and methicillin resistant Staphylococcus aureus (ATCC 33591) were obtained from the American Type Culture Collection, Rockville, Md.
8.4 Kinetic Bactericidal Assay
The following assay is used to determine the rate at which a cyclic peptide kills a target microorganism, as well as to determine if a cyclic peptide is bactericidal or bacteriostatic.
1. Dispense 200 μL of log-phase cells in LTM (4×10^5 CFUs/mL) into each well of a 96-well microtiter plate solution.
2. At time T=0 minutes, add 22 μL of 1280 μg/mL peptide to well A1 and mix by triturating 3 times.
3. Wait 30 seconds and add 22 μL of a second concentration of peptide the to the next well (A2) and mix by triturating 3 times.
4. Repeat the process, staggering each peptide addition by 30 seconds, until all concentrations of peptide have been added. Typically, 4-fold serial dilutions of stock peptide (i.e., 1280, 320, 80, 20 and 5 μg/mL peptide diluted 1:10 into each well) produces good comparative kill curves. Add 22 μL of 0.01% acetic acid to one well as a control.
5. At time T=15 minutes, mix well A1 by triturating 3 times and transfer 20 μL to an empty sterile petri dish (100 mm×15 mm).
6. Quickly add 20 mL of tempered (50° C.) TSA and gently swirl plate to mix.
7. Repeat steps 5-6 until all peptide concentrations have been plated.
8. For the control well, dilute the sample 1:100 with LTM and plate 50 μL of the dilution to obtain an accurate determinations of CFUs.
9. After the agar has solidified, invert the plates and incubate at 37° C. (bacteria) 30° C. (yeast) for 18-24 hours.
10. Repeat steps 5-9 for all peptide concentrations and control samples at times T=30, 60, 120, and 240 minutes.
11. Count the number of CFUs per plate and estimate the reduction in CFUs for each peptide concentration. In order to assess an effect using this assay, the peptide must reduce the CFUs by at least one log (i.e., at least 800 CFUs per plate). Although such numbers are higher than recommended for accuracy (30-300 CFUs/plate), log-order changes in recoverable CFUs indicate significant bacteriocidal efficacy.
12. To obtain comparative kill curves, plot the log of fractional survival versus peptide concentration.

Pseudomonas aeruginosa = assay: Modified NCCLS minimum inhibitory concentration (MIC) assay; conditions: for MIC Values Psa: Table 4, Psa is Pseudomonas aeruginosa; for MIC: Pseudomonas aeruginosa
Text: as §1
(§2) 8.3 Modified NCCLS Minimum Inhibitory Concentration (MIC) Assay
(§3) The National Committee for Clinical Standards (NCCLS) requires that test compounds be prepared as stock solutions in Meuller-Hinton Broth ("MHB") at 512 μg/mL. The stock solutions are serially diluted (two-fold) in medium and each serial dilution added 1:1 to medium containing 1×10^6 CFU/mL bacteria (National Committee on Clinical Laboratory Standards, December 1994, "Performance Standards for Antimicrobial Susceptibility Testing," NCCLS Document M100-S5 Vol. 14, No. 16; Methods for Dilution Antimicrobial Susceptibility Test for Bacteria that Grow Aerobically, 3d Ed., Approved Standard M7-A3, National Committee for Clinical Standards, Villanova, Pa.).
(§4) Thus, following the NCCLS protocol would result in serial two-fold dilutions containing less peptide than calculated, yielding erroneously high MIC values.
(§5) To overcome this problem, the following modified NCCLS assay is the preferred method for determining MICs of the cyclic peptides of the invention.
(§6) Preparation of MIC assay plates:
(§7) 1. Prepare a fresh overnight culture of test organism in Meuller-Hinton broth (MHB; Becton-Dickinson, Cockysville, Md., BB2 #11443).
(§8) 2. Dilute the culture to approximately 4×10^5 CFUs/mL with fresh MHB and dispense 100 μL aliquots into each well of a sterile 96-well microtiter plate.
(§9) 3. From the peptide stock solution, prepare serial two-fold dilutions (from 1280 μg/mL to 0.625 μg/mL) using acetic acid (0.01%) as a diluent, or, for peptide concentrations lower than 50 μg/mL, sodium acetate (10 mM, pH 5) containing Human Serum Albumin (HSA; 0.1% w/v) as a diluent.
(§10) 4. Dispense triplicate aliquots (11 μL) of each serial dilution into the wells of the microtiter plate.
(§11) 5. Incubate the plate for 16-18 hours, without aeration, at 37° C. (bacteria) or 30° C. (yeast).
(§12) 6. Examine the plates and evaluate each well for turbidity (cell growth). Often, MRSA will settle out and form a pellet at the bottom of the well. MRSA can be evaluated by placing the microtiter plate on a stand and examining the bottom of the well using a tilted mirror.
(§13) 7. The minimum inhibitory concentration (MIC) is defined as the lowest peptide concentration that inhibits all visible growth. If the MIC values for each of the triplicate samples differ, the MIC is obtained by averaging the results of the three samples. […]

[2] = system: MRSA (methicillin resistant Staphylococcus aureus); assay: as above; conditions: for MIC Values MRSA: Table 4
Text: as §1, §2, §3, §4, §5, §6, §7, §8, §9, §10, §11, §12, §13

[3] = system: VRE (vancomycin-resistant Enterococcus faecium); assay: as above

SMILES	MRSA Kill Kinetics 15 min [1] [log reduction]	MRSA Kill Kinetics 120 min [1] [log reduction]	MIC Values Psa (Pseudomonas aeruginosa) [µg/mL]	MIC Values MRSA [2] [µg/mL]	MIC ([3]; Acetic Acid Diluent) [µg/mL]	MIC ([3]; Sodium Acetate-HSA Diluent) [µg/mL]	MIC (Pseudomonas aeruginosa; Acetic Acid Diluent) [µg/mL]	MIC (Pseudomonas aeruginosa; Sodium Acetate-HSA Diluent) [µg/mL]	MIC ([2]; Acetic Acid Diluent) [µg/mL]	MIC ([2]; Sodium Acetate-HSA Diluent) [µg/mL]
CC(C)C[C@@H]1NC(=O)[C@H](Cc2c[nH]c3ccccc23)NC(=O)[C@H](CCCNC(=N)N)NC(=O)CNC(=O)[C@H](C(C)C)NC(=O)[C@@H]2CSSC[C@H](NC1=O)C(=O)N[C@@H](Cc1ccc(O)cc1)C(=O)N[C@H]1CSSC[C@H](NC(=O)[C@H](Cc3ccccc3)NC(=O)[C@H](CCCNC(=N)N)NC(=O)[C@H](CCCNC(=N)N)NC(=O)[C@H](CCCNC(=N)N)NC1=O)C(=O)N[C@@H](C(C)C)C(=O)N2 [cyclo(CYCRRRFCVCVGRWL)] (cyclo(CRRRFCVCVGRWLCY); disulfide 1-6, 8-14)	3.06	> 3.44	8 (≈ 4.21 µM)	2 (≈ 1.05 µM)						
CC(C)C[C@H](NC(=O)[C@H](CCCNC(=N)N)NC(=O)CNC(=O)CNC(=O)[C@@H](N)CCCNC(=N)N)C(=O)N[C@H]1CSSC[C@@H](C(=O)N[C@H](C(=O)NCC(=O)N[C@@H](CCCNC(=N)N)C(N)=O)C(C)C)NC(=O)[C@H](C(C)C)NC(=O)[C@@H]2CSSC[C@H](NC(=O)[C@H](Cc3ccc(O)cc3)NC1=O)C(=O)N[C@@H](CCCNC(=N)N)C(=O)N[C@@H](CCCNC(=N)N)C(=O)N[C@@H](CCCNC(=N)N)C(=O)N[C@@H](Cc1ccccc1)C(=O)N2 [protegrin-1, RGGRLCYCRRRFCVCVGR]	0.73	0.71	1.67 (≈ 0.775 µM)	4 (≈ 1.86 µM)	2 (≈ 0.928 µM)	≤ 0.25	8 (≈ 3.71 µM)	1.3 (≈ 0.603 µM)	13.3 (≈ 6.17 µM)	5.3 (≈ 2.46 µM)
